The list shows a part of the results. The main result of the screen is listed elsewhere. These columns were measured beside it and carry no call. Compounds called inactive in the main read-out are mostly missing here. The note in brackets gives the kind of curve behind each potency; many fits are weak.
Assay: qHTS Assay for Lipid Storage Modulators in Drosophila S3 Cells;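 on cell number change: cells counted by Cell Tracker Red CMTPX staining in the red channel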
Settings: BODIPY lipid droplet fluorescence, 18-24 h; for cell number change: measured here: cell count max response, cells fed with added oleic acid
Summary of the method: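 Drosophila S3 cells loaded with oleic acid (400 uM, as added) and compounds at several concentrations; lipid droplets imaged by 488-nm laser-scanning cytometry, 500–530 nm intensity and object ratio to cell channel. Percent activity normalized to 20 uM Triacsin C.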

[1] = measured here: cell number channel AC50, cells fed with added oleic acid
[2] = measured here: lipid fluorescence (Fed channel) AC50, cells fed with added oleic acid

## COc1ccc(C(C)(C)C)cc1NC(=O)c1ccc2c(c1)SC1=NS(=O)(=O)CCN12
  cell number change: 13.7%

## O=C(Nc1ccccc1N1CCOCC1)C1(c2ccc(Cl)cc2)CCC1
  cell number change: 123%
[1]
  AC50: 29.1 µM [rising, single point]
[2]
  AC50: 29.1 µM [rising, partial curve]

## COc1ccc(NC(C)=O)cc1NC(C)C(=O)Nc1cccc(S(=O)(=O)N2CCOCC2)c1 (configuration not stated)
  cell number change: -1.95%
[2]
  AC50: 4.11 µM [rising, single point]

## COc1ccc(OC)c(NC(=O)CCN2CC(C)CC(C)C2)c1 (configuration not stated)
  cell number change: 4.74%
[2]
  AC50: 3.66 µM [rising, partial curve, poor fit]

## CN1CCN(C(=S)NC(=O)c2ccc(S(=O)(=O)N3CCOCC3)cc2)CC1
[2]
  AC50: 29.1 µM [falling, single point]

## Cc1ccc(-n2c(SCC(=O)N/N=C/c3c(C)nn(-c4ccccc4)c3C)nc3ccccc3c2=O)cc1
  cell number change: 5.12%
[2]
  AC50: 0.651 µM [rising, partial curve]

## CCCCC(OC(=O)CN1C(=O)COc2ccccc21)C(=O)NC1CCCCC1 (configuration not stated)
  cell number change: -1.28%
[2]
  AC50: 0.116 µM [rising, single point]

## O=C(NCC1CCCCC1)c1ccc(F)cc1Cl
  cell number change: -17.2%
[2]
  AC50: 0.13 µM [falling, full curve, poor fit]

## CC(=O)N1CC(C)Sc2ccc(S(=O)(=O)NCCc3cccc(C)c3)cc21 (configuration not stated)
  cell number change: 13.4%
[2]
  AC50: 29.1 µM [falling, single point]

## COc1ccc(C(O)c2nc3ccccc3s2)cc1 (configuration not stated)
  cell number change: 0.281%
[2]
  AC50: 0.116 µM [rising, full curve, poor fit]

## O=C(COC(=O)C1=Cc2ccccc2OC1)NCc1ccco1
  cell number change: 14.2%
[2]
  AC50: 0.206 µM [rising, full curve, poor fit]

## Cc1nnc(SCC(=O)N/N=C/c2cn(-c3ccccc3)nc2-c2ccc(F)cc2)n1-c1ccccc1
  cell number change: 2.48%
[2]
  AC50: 2.06 µM [rising, full curve]

## CCN(CC)c1ccc2cc(C(=O)NCc3ccc(F)cc3)c(=N)oc2c1
  cell number change: -21.4%
[2]
  AC50: 0.164 µM [rising, full curve]

## O=C(Sc1cccc2cccnc12)c1ccc(F)cc1
  cell number change: -36.1%
[1]
  AC50: 8.2 µM [falling, partial curve, poor fit]
[2]
  AC50: 8.2 µM [falling, partial curve]

## CCN(CC)c1ccc(NC(=O)c2ccco2)c(C)c1
  cell number change: 22.1%
[2]
  AC50: 29.1 µM [rising, single point]

## NNc1nc(Nc2ccccc2)nc(Nc2ccccc2)n1
  cell number change: 12.7%
[1]
  AC50: 0.0731 µM [rising, full curve]
[2]
  AC50: 0.92 µM [rising, full curve, poor fit]

## COC(=O)c1c(C)oc2ccc(N(C(=O)c3ccncc3)S(=O)(=O)c3ccc(C)cc3C)cc12
  cell number change: 3.33%
[1]
  AC50: 6.51 µM [falling, single point]
[2]
  AC50: 0.82 µM [rising, partial curve]

## COc1cc(C=O)ccc1Oc1cnccn1
  cell number change: 26.8%

## O=C(O)c1cccc(COc2ccccc2Cl)c1
  cell number change: -171%
[1]
  AC50: 29.1 µM [falling, single point]

## Cc1ccc(NNc2c(C)nc3ccccc3nc2=O)cc1
  cell number change: -14.9%
[1]
  AC50: 2.31 µM [falling, partial curve]

## COc1ccccc1C1CC(c2ccc(Cl)cc2)Nc2ncnn21 (configuration not stated)
[2]
  AC50: 0.146 µM [rising, full curve, poor fit]

## CC(=O)Nc1cccc(NC(=O)Nc2cccc(Cl)c2C)c1
  cell number change: 26.5%
[2]
  AC50: 0.00517 µM [rising, full curve, poor fit]

## COC(=O)CCC(=O)OC1(C)C(=O)C2=CN(C(CO)CO)C(c3ccc(OC)cc3)=CC2=C(Br)C1=O (configuration not stated)
  cell number change: -22.5%
[2]
  AC50: 0.0291 µM [falling, full curve]

## CCOc1ccc(C(C(=O)NC2CCCCC2)N(C(=O)c2csnn2)C2CC2)cc1 (configuration not stated)
  cell number change: 46.7%
[1]
  AC50: 20.6 µM [rising, single point]

## O=C(CN(C(=O)CCC(=O)Nc1ccccn1)c1cccc(F)c1)NCc1ccc2c(c1)OCO2
  cell number change: -20%
[2]
  AC50: 0.206 µM [rising, single point]

## CC1(C)CC2CC(C)(CN2C(=O)c2cc(-c3ccccc3O)on2)C1 (configuration not stated)
  cell number change: 23.2%
[2]
  AC50: 5.17 µM [rising, partial curve]

## NS(=O)(=O)c1ccc(NC(=S)NC(=O)/C=C/c2ccco2)cc1
  cell number change: 12.5%
[1]
  AC50: 6.51 µM [rising, single point]
[2]
  AC50: 0.58 µM [rising, full curve, poor fit]

## COc1ccccc1/C=N/NS(=O)(=O)c1ccccc1
  cell number change: 17.3%
[2]
  AC50: 0.461 µM [rising, full curve]

## CCC(C(=O)OC(C)C)c1ccc2ccccc2c1 (configuration not stated)
  cell number change: -31.8%
[1]
  AC50: 4.61 µM [falling, single point]
[2]
  AC50: 0.103 µM [rising, single point]

## C=CCNC(=O)c1ccccc1NS(=O)(=O)c1ccc(OC)c(C(=O)N2CCOCC2)c1
  cell number change: 17.9%
[2]
  AC50: 4.11 µM [rising, partial curve]

## Cc1cc(C(=O)Nc2ccc(Cl)c(S(=O)(=O)N3CCOCC3)c2)c2ccccc2n1
[2]
  AC50: 6.51 µM [falling, single point]

## CCc1c(C)nc(SCC(=O)N2CCN(c3ccccc3OC)CC2)[nH]c1=O
  cell number change: -63.8%

## O=C(CCc1ccccc1)Nc1nn[nH]n1
  cell number change: -6.08%
[2]
  AC50: 0.651 µM [falling, full curve, poor fit]

## CC(=O)c1ccc(Sc2ccccc2)cc1
[2]
  AC50: 6.51 µM [falling, single point]

## CCC(C(=O)OC)n1cnc2c(nnn2-c2ccc(C)cc2)c1=O (configuration not stated)
  cell number change: 17.3%
[2]
  AC50: 29.1 µM [rising, single point]

## O=C(O)Cc1csc(NC(=O)CSc2nnnn2-c2ccc(O)cc2)n1
  cell number change: -18.1%
[2]
  AC50: 4.61 µM [falling, single point]

## CCn1cc(/C=C/C(=O)Nc2ccn(Cc3c(F)c(F)cc(F)c3F)n2)cn1
[1]
  AC50: 0.58 µM [rising, single point]

## CCOC(=O)Cc1csc(NC(=O)COc2ccc(OC)cc2)n1
  cell number change: 0.737%

## COc1cc2c(c(OC)c1OC)CC(=O)N(C)CC2
  cell number change: -22.3%
[1]
  AC50: 0.58 µM [falling, single point]
[2]
  AC50: 0.82 µM [rising, single point]

## O=C(N/N=C/c1ccc(OC(=O)c2ccccc2)c([N+](=O)[O-])c1)c1ccc(O)cc1
  cell number change: 3.62%
[2]
  AC50: 0.326 µM [falling, partial curve, poor fit]

## COc1ccc(S(=O)(=O)N2CCN(C(=O)c3cc(C)on3)CC2)cc1
  cell number change: 5.7%
[1]
  AC50: 0.00461 µM [falling, full curve, poor fit]

## CC(=O)NC1(C(F)(F)F)NC(=O)N(CC(C)C)C1=O (configuration not stated)
  cell number change: -80.5%
[1]
  AC50: 18.4 µM [falling, partial curve]
[2]
  AC50: 5.17 µM [falling, partial curve]

## O=C1CN(c2nc(-c3cccnc3)nc3sc4c(c23)CCCC4)CCN1
  cell number change: 25.4%
[2]
  AC50: 0.259 µM [rising, full curve, poor fit]

## Cc1ccc(S(=O)(=O)N2CCN(S(=O)(=O)N(C)C)CC2)c(C)c1
  cell number change: 16.5%
[2]
  AC50: 0.00461 µM [falling, full curve, poor fit]

## O=C(c1cnn2ccccc12)N1CCCc2ccccc21
  cell number change: 0.527%
[2]
  AC50: 29.1 µM [rising, single point]

## CCN(CC(=O)NCc1cccs1)S(=O)(=O)c1cccc(C(C)=O)c1
  cell number change: -36.1%
[1]
  AC50: 8.2 µM [falling, partial curve, poor fit]
[2]
  AC50: 6.51 µM [falling, partial curve]

## CCc1cc(Cn2nc(-c3ccccc3)cc2C(=O)NCc2cccc(C(F)(F)F)c2)on1
  cell number change: -10.4%

## O=C(NCC(c1cccnc1)N1CCN(c2ccccc2F)CC1)c1cccc(Cl)c1 (configuration not stated)
  cell number change: 282%
[1]
  AC50: 18.4 µM [rising, partial curve, poor fit]
[2]
  AC50: 23.1 µM [rising, partial curve]

## COc1ccc(-c2cn(CCC(=O)O)c(C)n2)cc1
  cell number change: 31.2%
[1]
  AC50: 0.326 µM [rising, full curve, poor fit]

## COc1cc(OC)c(OC)cc1CNc1nnnn1C
  cell number change: 6.83%
[2]
  AC50: 0.184 µM [rising, full curve, poor fit]

## Cc1ccccc1-c1nc(CS(=O)(=O)CC(=O)N(C)C2CCCCC2)c(C)o1
  cell number change: 18.1%
[1]
  AC50: 3.66 µM [rising, single point]
[2]
  AC50: 3.26 µM [rising, full curve]

## COc1ccc(CCNC(=O)CSC(=O)c2ccccc2)cc1OC
  cell number change: 29.7%
[2]
  AC50: 5.8 µM [falling, full curve, poor fit]

## O=C(NCCCn1ccnc1)C1c2ccccc2Oc2ccccc21
  cell number change: 37.9%
[1]
  AC50: 1.84 µM [rising, full curve]
[2]
  AC50: 1.84 µM [rising, full curve]

## O=C(c1ccc2c(c1)OCO2)N1CCN=C1SCc1cccnc1
[1]
  AC50: 3.26 µM [rising, single point]
[2]
  AC50: 4.11 µM [rising, single point]

## Cc1cc(-c2nc3cccnc3s2)ccc1NS(=O)(=O)c1ccc2c(c1)OCCO2
  cell number change: 6.78%
[1]
  AC50: 0.116 µM [rising, full curve]

## COc1cc(C(=O)N2CCN(c3ccccc3)CC2)c([N+](=O)[O-])cc1OC
  cell number change: -4.92%
[2]
  AC50: 29.1 µM [rising, single point]

## CC(C)c1ccccc1NS(=O)(=O)c1cccs1
  cell number change: -21.1%

## CCn1c(C(=O)NC(C)c2ccc3c(c2)OCCO3)cc2sccc21 (configuration not stated)
  cell number change: -8.96%
[2]
  AC50: 16.4 µM [falling, single point]

Reference: PubChem BioAssay AID2685 (National Center for Advancing Translational Sciences (NCATS), 2010)
